Test results from PubChem BioAssay AID1347131 (National Center for Advancing Translational Sciences (NCATS), 2019).
Out of some 410,000 compounds screened, about 2,000 (0.49%) were called active. The inconclusive results got no clear call from the source; some entries with a clear call stand among them for comparison. Calls come from the whole dose curve; tested in HEK293 reporter line. A potency beside an inconclusive call is a rough fit, not a confirmed value.

Experiment: qHTS Assay for Foot and Mouth Disease Virus Antivirals: Primary Screen against the MLPCN compound library; note: nearly all actives have a fitted effect of over 55% in size
Conditions: FMDV antiviral cell-based qHTS; activity, negative = inhibition: at 57.9 µM (top of the series)
Potency is the fitted concentration of half-maximal effect.

**Q.** For `CCCC[C@H]1COCCS(=O)(=O)N1Cc1ccc(Br)cc1`, which Potency is on record?
**A.** inconclusive: 15.8 µM [inhibitor, partial curve]

**Q.** With `CCOc1ccccc1CN1CCc2nc(N3CCN(c4ccccc4F)CC3)ncc2C1` as the compound, how does the Potency read?
**A.** inconclusive: 28.2 µM [inhibitor, partial curve, poor fit]

**Q.** Which Potency does the source give for `CN(c1ccccc1)S(=O)(=O)c1cccc(NC(=O)CSc2ncn[nH]2)c1` here?
**A.** inconclusive: 35.5 µM [inhibitor, partial curve, poor fit]

**Q.** For `O=C(N/N=C/c1ccc2ncccc2c1)c1ccco1`, which Potency is on record?
**A.** active: 14.1 µM

**Q.** With `CCCC(=O)NC1=C(C#N)C2(CCCCC2)Cc2ccccc21` as the compound, how does the activity, negative = inhibition read?
**A.** inconclusive: -31.7% [inhibitor]

**Q.** Which Potency does the source give for `O=C(c1[nH]ncc1-c1cccc(Br)c1)C1CO1` (stereo not given) here?
**A.** inconclusive: 35.5 µM [inhibitor, partial curve, poor fit]

**Q.** With `COC(=O)c1ccc(COc2ccc(/C=N/NC(N)=S)cc2)o1` as the compound, how does the “activity, negative = inhibition” value read?
**A.** inactive: -33%

**Q.** With `Cc1ccc(-n2c(Cl)c(Cl)nc(Cl)c2=O)cc1` as the compound, how does the Potency read?
**A.** inconclusive: 7.08 µM [inhibitor, full curve, poor fit]

**Q.** Which Potency does the source give for `CCOC(=O)c1ccc(S(=O)(=O)N2CCC(C(=O)O)CC2)cc1` here?
**A.** inconclusive: 35.5 µM [inhibitor, partial curve, poor fit]

**Q.** For `Cc1nn(-c2cccc(Cl)c2)c2c1C(c1ccncc1)C(C#N)=C(N)O2` (stereo not given), which “activity, negative = inhibition” value is on record?
**A.** inactive: -32.2%

**Q.** For `N/C(=N\OC(=O)c1cccc(Cl)c1)c1ccccn1`, which Potency is on record?
**A.** inconclusive: 39.8 µM [inhibitor, single point]

**Q.** For `CC(C)(C)c1ccc(C(=O)N2CCN(CCNC(=O)C(=O)NCc3ccc(Cl)cc3)CC2)cc1`, which Potency is on record?
**A.** inconclusive: 7.08 µM [inhibitor, partial curve, poor fit]

**Q.** Which Potency does the source give for `Cc1ccc2c(c1)c1ncnc(N3CCN(c4ccccc4)CC3)c1n2C` here?
**A.** inconclusive: 20 µM [inhibitor, partial curve, poor fit]

**Q.** With `COc1ccc(-n2ncc3c(NCC(C)C)ncnc32)cc1` as the compound, how does the Potency read?
**A.** inconclusive: 10 µM [inhibitor, partial curve]

**Q.** With `Cc1ccc(-c2nc3cc(C)ccc3o2)cc1` as the compound, how does the Potency read?
**A.** inconclusive: 10 µM [inhibitor, partial curve, poor fit]

**Q.** For `CC(=O)NC(CC(=O)Nc1nc(-c2ccc(N(C)S(C)(=O)=O)cc2)cs1)c1ccccc1` (stereo not given), which Potency is on record?
**A.** inconclusive: 15.8 µM [inhibitor, partial curve, poor fit]

**Q.** For `Clc1cc(/C=N\NC2=NCCN2)cc(Cl)n1`, which Potency is on record?
**A.** inconclusive: 1.26 µM [inhibitor, full curve]

**Q.** For `CC(C)NC(=O)NC(=O)CSc1nnc(COc2ccccc2F)n1C(C)C1CC2CCC1C2` (stereo not given), which Potency is on record?
**A.** inconclusive: 28.2 µM [inhibitor, partial curve, poor fit]

**Q.** Which Potency does the source give for `O=C(NCc1cccc(F)c1)c1cccc(OC2CCN(C(=O)C3CC3)CC2)c1` here?
**A.** inconclusive: 28.2 µM [inhibitor, partial curve, poor fit]

**Q.** Which Potency does the source give for `O=C(CN1C(=O)NC2(CCCCC2)C1=O)NCCCSc1ccccc1` here?
**A.** inconclusive: 4.47 µM [inhibitor, full curve]

**Q.** Which “activity, negative = inhibition” value does the source give for `CC(=O)NC12CC3CC(C1)CC(C(=O)Oc1ccc(N(C)S(=O)(=O)c4cc(C)ccc4C)cc1)(C3)C2` here?
**A.** inactive: -36.6%

**Q.** With `COc1ccccc1N1CCN(C(=S)Nc2ccc(S(=O)(=O)N3CCOCC3)cc2)CC1` as the compound, how does the Potency read?
**A.** inconclusive: 25.1 µM [inhibitor, partial curve, poor fit]

**Q.** With `Cc1cc(NC(=O)Cn2nnc3sc4c(c3c2=O)CCC(C(C)(C)C)C4)no1` (stereo not given) as the compound, how does the Potency read?
**A.** inconclusive: 28.2 µM [inhibitor, single point]

**Q.** Which Potency does the source give for `Cc1cccc(N2CCN(Cc3ccc4c(c3)OCO4)CC2)c1C` here?
**A.** inconclusive: 3.55 µM [inhibitor, partial curve]

**Q.** For `O=C(Nc1cccc(NC(=O)c2ccccc2Cl)c1)c1ccco1`, which Potency is on record?
**A.** inconclusive: 1.58 µM [inhibitor, full curve]

**Q.** Which Potency does the source give for `COc1cccc(NC(=O)N2CCN(c3nc(-c4cccc(OC)c4)cs3)CC2)c1` here?
**A.** inconclusive: 31.6 µM [inhibitor, partial curve, poor fit]

**Q.** For `CCCCCN=c1ccn(Cc2ccccc2)c2ccccc12`, which Potency is on record?
**A.** inconclusive: 39.8 µM [inhibitor, partial curve, poor fit]

**Q.** Which Potency does the source give for `Cc1nc(-c2ccc(C)c(S(=O)(=O)N3CCC(C(=O)Nc4ccc(Cl)cc4)CC3)c2)no1` here?
**A.** inconclusive: 5.62 µM [inhibitor, partial curve, poor fit]

**Q.** Which Potency does the source give for `O=C(COc1ccc(Cl)cc1)Nc1ccc(C(=O)NCc2cccnc2)cc1` here?
**A.** inconclusive: 14.1 µM [inhibitor, partial curve, poor fit]

**Q.** For `CCCn1c(SCC(=O)Nc2cccc(S(=O)(=O)NC3=NCCCCC3)c2)nc2ccccc2c1=O`, which Potency is on record?
**A.** inconclusive: 31.6 µM [inhibitor, partial curve, poor fit]

**Q.** With `COc1cc(C(=O)NCC(=O)N/N=C/c2c(C)[nH]c3ccccc23)cc(OC)c1OC` as the compound, how does the activity, negative = inhibition read?
**A.** inconclusive: -30.4% [inhibitor]

**Q.** With `COc1ccc(-n2c3c(cc(C(=O)NNc4ccccc4C)c2=O)C(=O)CC(C)(C)C3)cc1` as the compound, how does the Potency read?
**A.** inconclusive: 17.8 µM [inhibitor, single point]

**Q.** Which “activity, negative = inhibition” value does the source give for `CCC(=O)N1CCc2cc(S(=O)(=O)CCC(=O)N3CCN(c4ccc(C(C)=O)cc4)CC3)ccc21` here?
**A.** inactive: -30.2%

**Q.** With `O=C(/C=C/c1ccccc1)CC(=O)c1ccccc1` as the compound, how does the Potency read?
**A.** inconclusive: 39.8 µM [inhibitor, single point]

**Q.** Which Potency does the source give for `c1ccc2sc(NN=C3CCCCCC3)nc2c1` here?
**A.** active: 15.8 µM

**Q.** Which Potency does the source give for `COCCNc1nc2c(c(=O)n(C)c(=O)n2C)n1CCCc1ccccc1` here?
**A.** inconclusive: 15.8 µM [inhibitor, partial curve, poor fit]

**Q.** With `Cc1ccc(CS/C(Nc2ccccc2C)=C(\C#N)C(N)=O)c(C)c1` as the compound, how does the Potency read?
**A.** inconclusive: 25.1 µM [inhibitor, single point]

**Q.** For `c1ccc(-c2ccc(-c3nc(-c4ccccn4)no3)cc2)cc1`, which Potency is on record?
**A.** inconclusive: 2.82 µM [inhibitor, full curve, poor fit]

**Q.** Which Potency does the source give for `COCCn1nnnc1C(c1cccs1)N1CCN(c2cccc(C(F)(F)F)c2)CC1` (stereo not given) here?
**A.** inconclusive: 28.2 µM [inhibitor, partial curve, poor fit]

**Q.** For `C=C1C(=O)[C@]23C[C@H]1CCC2[C@@]1(C)C(C[C@@H]3O)[C@](C)(C(=O)OC)CC[C@@H]1OC(C)=O` (stereo not given in full), which Potency is on record?
**A.** inconclusive: 8.91 µM [inhibitor, full curve, poor fit]

**Q.** For `Cc1ccnc(NC(=O)c2ccc3c(c2)OCO3)c1`, which Potency is on record?
**A.** inconclusive: 15.8 µM [inhibitor, single point]

**Q.** Which Potency does the source give for `COc1ccc(-c2csc(NC(=O)CSCc3c(C)noc3C)n2)cc1OC` here?
**A.** inconclusive: 39.8 µM [inhibitor, partial curve, poor fit]

**Q.** Which Potency does the source give for `O=C(Cn1nc(-c2ccc(Cl)cc2)c2ccccc2c1=O)Nc1cccc(C(F)(F)F)c1` here?
**A.** inconclusive: 3.16 µM [inhibitor, full curve]

**Q.** Which Potency does the source give for `c1ccc(-n2nnc3c(N4CCOCC4)ncnc32)cc1` here?
**A.** inconclusive: 14.1 µM [inhibitor, single point]

**Q.** With `Cc1cccc(C)c1NC(=O)c1ccc([N+](=O)[O-])s1` as the compound, how does the Potency read?
**A.** inconclusive: 15.8 µM [inhibitor, partial curve]

**Q.** With `COc1ccc(C2c3ccc4ccccc4c3Oc3ncn(CCCO)c(=N)c32)cc1` (stereo not given) as the compound, how does the Potency read?
**A.** inconclusive: 31.6 µM [inhibitor, partial curve, poor fit]

**Q.** With `CC1(c2ccc3noc(-c4ccccc4)c3c2)OCCO1` as the compound, how does the Potency read?
**A.** inconclusive: 15.8 µM [inhibitor, partial curve, poor fit]

**Q.** With `COc1ccc(-c2nc(-c3cccs3)no2)cc1` as the compound, how does the Potency read?
**A.** inconclusive: 7.08 µM [inhibitor, full curve, poor fit]

**Q.** Which “activity, negative = inhibition” value does the source give for `Cc1cc(C)cc(NC(=O)c2ccc(N3C(=O)C4CCCCC4C3=O)cc2)c1` (stereo not given) here?
**A.** inactive: -35.2%

**Q.** With `CCOc1ccc(-c2ccc(SC)nn2)cc1` as the compound, how does the Potency read?
**A.** inconclusive: 10 µM [inhibitor, partial curve, poor fit]

**Q.** With `CC(=O)Nc1ccc(/C=C2\CCc3ccccc3C2=O)cc1` as the compound, how does the Potency read?
**A.** inconclusive: 39.8 µM [inhibitor, single point]

**Q.** Which activity, negative = inhibition does the source give for `C/C(=N\NC(=O)CSCc1ccc([N+](=O)[O-])cc1)c1ccccc1` here?
**A.** inconclusive: -40.4% [inhibitor]

**Q.** Which Potency does the source give for `CC(C)c1ccc(OCc2ccc(C(=O)O)o2)cc1` here?
**A.** inconclusive: 10 µM [inhibitor, partial curve, poor fit]

**Q.** For `CCn1c2c(c(=O)n3ncc(C(=O)N4CCN(c5ccc(C(C)=O)cc5)CC4)c13)CN(Cc1ccc(OC)cc1)CC2`, which Potency is on record?
**A.** inconclusive: 20 µM [inhibitor, partial curve, poor fit]

**Q.** For `CCOC(=O)N1CCC(NS(=O)(=O)c2ccc(NC(C)=O)c(Cl)c2)CC1`, which Potency is on record?
**A.** inconclusive: 4.47 µM [inhibitor, partial curve, poor fit]

**Q.** Which Potency does the source give for `Cc1nnc(SCC(=O)N/N=C/c2cn(-c3ccccc3)nc2-c2ccccc2)n1-c1ccccc1` here?
**A.** inconclusive: 28.2 µM [inhibitor, single point]

**Q.** With `CCOC(=O)C(C)Sc1ncc(-c2ccc(Cl)cc2)cn1` (stereo not given) as the compound, how does the Potency read?
**A.** inconclusive: 39.8 µM [inhibitor, single point]

**Q.** With `COc1ccc(Cn2ccn(Cc3cccc(Cl)c3)c(=O)c2=O)cc1` as the compound, how does the Potency read?
**A.** inconclusive: 3.98 µM [inhibitor, full curve]

**Q.** For `Cc1ccc(OCc2nc(-c3ccccn3)no2)c(Br)c1`, which Potency is on record?
**A.** active: 20 µM

**Q.** For `O=c1c2c3c(sc2ncn1/N=C/c1ccc([N+](=O)[O-])o1)CCCC3`, which Potency is on record?
**A.** inconclusive: 28.2 µM [inhibitor, partial curve, poor fit]
